{"sequences": {"note": "Amino acid sequences for entries named in this document (tags omitted).", "UniProt P51979": "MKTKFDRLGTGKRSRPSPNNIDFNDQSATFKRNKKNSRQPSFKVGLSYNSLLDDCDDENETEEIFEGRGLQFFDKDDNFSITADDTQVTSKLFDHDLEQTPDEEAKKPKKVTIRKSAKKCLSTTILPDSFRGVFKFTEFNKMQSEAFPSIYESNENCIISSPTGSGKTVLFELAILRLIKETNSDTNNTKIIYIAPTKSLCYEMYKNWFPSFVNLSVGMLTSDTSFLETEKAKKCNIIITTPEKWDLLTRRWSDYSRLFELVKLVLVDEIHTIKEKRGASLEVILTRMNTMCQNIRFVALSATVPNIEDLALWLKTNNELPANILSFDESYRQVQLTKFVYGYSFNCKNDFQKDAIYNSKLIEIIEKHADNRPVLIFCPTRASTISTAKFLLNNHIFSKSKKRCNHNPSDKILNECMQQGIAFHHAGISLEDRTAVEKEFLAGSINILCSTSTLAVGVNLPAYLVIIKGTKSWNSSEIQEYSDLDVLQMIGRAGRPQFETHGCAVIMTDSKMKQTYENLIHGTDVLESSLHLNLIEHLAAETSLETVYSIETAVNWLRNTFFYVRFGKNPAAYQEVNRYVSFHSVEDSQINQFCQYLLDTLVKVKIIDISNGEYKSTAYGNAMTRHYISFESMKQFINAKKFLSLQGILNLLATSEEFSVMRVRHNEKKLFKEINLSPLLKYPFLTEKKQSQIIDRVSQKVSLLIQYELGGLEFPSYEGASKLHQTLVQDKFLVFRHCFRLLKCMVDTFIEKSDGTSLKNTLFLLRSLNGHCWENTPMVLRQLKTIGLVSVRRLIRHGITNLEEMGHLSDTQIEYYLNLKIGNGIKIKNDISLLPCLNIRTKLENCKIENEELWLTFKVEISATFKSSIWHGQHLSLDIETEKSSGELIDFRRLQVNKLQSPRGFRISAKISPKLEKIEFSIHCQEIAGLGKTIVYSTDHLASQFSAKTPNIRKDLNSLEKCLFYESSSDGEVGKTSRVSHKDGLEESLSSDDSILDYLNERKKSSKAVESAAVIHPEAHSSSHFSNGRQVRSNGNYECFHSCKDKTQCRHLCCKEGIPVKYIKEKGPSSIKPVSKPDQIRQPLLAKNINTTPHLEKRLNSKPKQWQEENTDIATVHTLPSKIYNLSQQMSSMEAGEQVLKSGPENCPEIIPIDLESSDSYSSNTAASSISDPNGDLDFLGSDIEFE"}, "source": "paper doi:10.1101/2022.06.27.497840", "about": "(bioRxiv, 2022)", "molecules": {"B1": {"name": "Top3 (untagged, subunit of the Top3/Rmi1 complex) (enzyme)", "chain": "MKVLCVAEKNSIAKAVSQILGGGRSTSRDSGYMYVKNYDFMFSGFPFARNGANCEVTMTSVAGHLTGIDFSHDSHGWGKCAIQELFDAPLNEIMNNNQKKIASNIKREARNADYLMIWTDCDREGEYIGWEIWQEAKRGNRLIQNDQVYRAVFSHLERQHILNAARNPSRLDMKSVHAVGTRIEIDLRAGVTFTRLLTETLRNKLRNQATMTKDGAKHRGGNKNDSQVVSYGTCQFPTLGFVVDRFERIRNFVPEEFWYIQLVVENKDNGGTTTFQWDRGHLFDRLSVLTFYETCIETAGNVAQVVDLKSKPTTKYRPLPLTTVELQKNCARYLRLNAKQSLDAAEKLYQKGFISYPRTETDTFPHAMDLKSLVEKQAQLDQLAAGGRTAWASYAASLLQPENTSNNNKFKFPRSGSHDDKAHPPIHPIVSLGPEANVSPVERRVYEYVARHFLACCSEDAKGQSMTLVLDWAVERFSASGLVVLERNFLDVYPWARWETTKQLPRLEMNALVDIAKAEMKAGTTAPPKPMTESELILLMDTNGIGTDATIAEHIDKIQVRNYVRSEKVGKETYLQPTTLGVSLVHGFEAIGLEDSFAKPFQRREMEQDLKKICEGHASKTDVVKDIVEKYRKYWHKTNACKNTLLQVYDRVKASM"}}, "key": {"[1]": {"target": "T1, Rmi1 (yeast two-hybrid fusion) (Saccharomyces cerevisiae (SK1)) (UniProt Q02685)", "T1 sequence": "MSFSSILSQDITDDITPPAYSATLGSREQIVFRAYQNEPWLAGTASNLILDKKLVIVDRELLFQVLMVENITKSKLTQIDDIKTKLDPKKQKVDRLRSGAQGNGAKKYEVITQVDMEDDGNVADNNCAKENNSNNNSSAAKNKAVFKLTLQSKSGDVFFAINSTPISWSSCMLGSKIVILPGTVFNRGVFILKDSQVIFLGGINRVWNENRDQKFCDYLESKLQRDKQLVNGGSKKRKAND", "experiment": "two-hybrid"}, "[2]": {"target": "T2, Top3 (yeast two-hybrid fusion) (Saccharomyces cerevisiae (SK1)) (UniProt P13099)", "T2 sequence": "B1 chain", "experiment": "two-hybrid"}, "[3]": {"target": "T3, HA-tagged Top3 (3 copies of HA, C-terminal) (Saccharomyces cerevisiae (SK1)) (UniProt P13099)", "T3 sequence": "B1 chain", "experiment": "co-IP"}, "[4]": {"target": "T4, GST-Rmi1 (Saccharomyces cerevisiae (SK1)) (UniProt Q02685)", "T4 sequence": "T1 sequence", "experiment": "co-purification"}}, "note": "No constants are given. Whether binding was seen depends on the method and setting. For some of these results: In cells and extracts the contact can be indirect. Some entries that bind do so weakly or less than the wild type. Sequences can lack the tags named with a protein.", "data": [{"molecule": "Mer3 (yeast two-hybrid fusion) (from UniProt P51979 1-1187) (enzyme)", "values": [{"measurement": "binding", "setting": "[1]", "result": "binds"}, {"measurement": "binding", "setting": "[2]", "result": "binds"}]}, {"molecule": "Myc-tagged Mer3 (9 copies of Myc, C-terminal) (from UniProt P51979 1-1187) (enzyme)", "values": [{"measurement": "binding", "setting": "[3]", "result": "binds"}]}, {"molecule": "B1", "values": [{"measurement": "binding", "setting": "[4]", "result": "binds"}]}]}
